Results on 1 molecule are retold here after article PMC11114116 (Molecular Pharmacology, 2024).

For this experiment, the target named is T1, human FABP1 (hFABP1) (Homo sapiens, UniProt P07148).
T1 sequence (P07148 1-127): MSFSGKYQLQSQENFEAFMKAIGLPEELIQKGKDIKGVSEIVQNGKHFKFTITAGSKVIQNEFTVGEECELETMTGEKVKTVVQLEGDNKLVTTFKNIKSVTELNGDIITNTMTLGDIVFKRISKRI
Put plainly: DAUDA displacement assay for hFABP1 binding.

For `CN1C(=O)CN=C(c2ccccc2)c2cc(Cl)ccc21` [Diazepam, diazepam], the EC50 is > 50 µM.

Broadly, the EC50 is the concentration that produces a half-maximal response.
